Values from PubChem BioAssay AID504786 (Drosophila RNAi Screening Center, 2011)
In all, the deposit lists about 21,000 reagents; this is an unselected part of those that have a named target and a result. 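Primary screen; positive scores mean lost reporter signal, so the sign may be inverted from the usual convention.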 A plus sign joins genes that one reagent is predicted to hit. Reagent sequences are not shown.

Test: 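Fly genes required for HIF-dependent transcription when hypoxia is mimicked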 (primary screen)
Cells: Drosophila S2 cells with a stable HIF luciferase reporter
Reagent: long dsRNA against Drosophila genes, about 0.2 µg dsRNA per well of a 384-well plate
Timing: three days of knock-down, then 20 h of DFO before reading
Treatment: desferrioxamine (DFO) at 100 µM, an iron chelator that mimics hypoxia, for 20 h
Read-out: 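Firefly luciferase driven by the mouse ldh-a hypoxia-response element, measured after 20 h of 100 µM DFO; z-scores per plate, higher means more signal lost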
Reading the numbers: z-score: higher = stronger loss of HIF reporter signal

ND-51L2 — z-score, replicate 1 = -0.3; z-score, replicate 2 = -0.3
Jheh2 — z-score, replicate 1 = -0.2; z-score, replicate 2 = -0.1
Surf6 — z-score, replicate 1 = -0.2; z-score, replicate 2 = 0.4
eve — z-score, replicate 1 = -0.3; z-score, replicate 2 = 0.1
CG8927 — z-score, replicate 1 = -0.5; z-score, replicate 2 = 0.6
Cog7 — z-score, replicate 1 = -0.3; z-score, replicate 2 = -0.1
ATPsynE — z-score, replicate 1 = 0; z-score, replicate 2 = 0.2
CG5543 — z-score, replicate 1 = -0.3; z-score, replicate 2 = 0.1
Jhbp1 — z-score, replicate 1 = -0.2; z-score, replicate 2 = -0.5
PGAP2 — z-score, replicate 1 = 0.8; z-score, replicate 2 = 1.5
inaF-B + inaF-D + inaF-C + 1 more — z-score, replicate 1 = -0.4; z-score, replicate 2 = -0.7
vls — z-score, replicate 1 = 0.1; z-score, replicate 2 = 0.8
CG14252 — z-score, replicate 1 = 0.2; z-score, replicate 2 = -0.1
Bmcp — z-score, replicate 1 = -0.3; z-score, replicate 2 = -1.1
pirk — z-score, replicate 1 = -0.2; z-score, replicate 2 = -0.4
aurA — z-score, replicate 1 = -0.2; z-score, replicate 2 = 1

Look-ups from the entries so far:
For “z-score, replicate 2”, aurA reads 1
Entry for ND-51L2 in “z-score, replicate 2”: -0.3
For “z-score, replicate 2”, PGAP2 shows 1.5
